Assay results: PubChem BioAssay AID2551 (National Center for Advancing Translational Sciences (NCATS), 2010)
Several values for one entry are separate records, joined by “and”; a condition that tells them apart may be missing. Identical values can stand only once. Screen size: about 310,000 compounds; about 17,000 (5.5%) were called active. Inconclusive means that the source gave no clear call. Such entries were picked first, then a sample of the others. Calls follow the shape of the dose curve; as a rule, active = well fitted inhibition curve with a large enough effect; inconclusive = small, poorly fitted or top-dose-only effect, or effect the other way; inactive = no such curve, though single readings can be large or run the other way. A potency beside an inconclusive call is a rough fit, not a confirmed value.

Sequences of proteins named here, by UniProt entry; tags and fusion partners are left off. A change or cut given only in a name is not applied to a line headed by its entry.
UniProt P51450: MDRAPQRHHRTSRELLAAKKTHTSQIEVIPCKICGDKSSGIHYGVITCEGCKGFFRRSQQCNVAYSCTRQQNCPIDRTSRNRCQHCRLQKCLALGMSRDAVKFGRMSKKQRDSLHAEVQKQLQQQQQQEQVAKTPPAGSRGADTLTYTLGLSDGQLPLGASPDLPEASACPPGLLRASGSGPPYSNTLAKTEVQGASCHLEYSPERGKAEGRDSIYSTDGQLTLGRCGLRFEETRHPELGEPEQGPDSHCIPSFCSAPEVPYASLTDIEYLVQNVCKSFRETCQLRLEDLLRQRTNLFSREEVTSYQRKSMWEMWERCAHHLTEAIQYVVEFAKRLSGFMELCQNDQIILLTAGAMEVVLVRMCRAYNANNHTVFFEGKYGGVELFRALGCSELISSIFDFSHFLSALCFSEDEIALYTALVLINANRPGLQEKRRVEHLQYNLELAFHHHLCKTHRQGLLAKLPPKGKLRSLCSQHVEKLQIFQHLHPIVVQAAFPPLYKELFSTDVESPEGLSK

target: Nuclear receptor ROR-gamma (Mus musculus) (UniProt P51450); assay: qHTS for inhibitors of ROR gamma transcriptional activity; conditions: Drosophila S2 Gal4-RORgamma UAS-luciferase reporter, 20 h; series mostly up to 53.6 µM; also: nearly all actives have a fitted effect of over 60% in size
Method in brief: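 Using a luciferase readout, inhibitors were identified by reduced reporter activity in Drosophila cells coexpressing a copper-inducible Gal4–ROR gamma fusion and UAS-driven Photinus luciferase, incubated 20 hr after 700 uM copper sulfate.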
Potency is read from the fitted curve at half-maximal effect.

Row | SMILES | Potency
1 | CCOC(=O)C1=NNC(C(=O)c2ccc(OC)cc2)C1c1ccccc1 (configuration not stated) | inconclusive: 11.2 µM [activator, single point]
2 | C/C(=N\N1CCN(c2ccccc2)CC1)c1ccc(O)cc1 | inactive
3 | O=C(CN1CCCC1)Nc1ccc([N+](=O)[O-])cc1 | inactive
4 | O=C(Nc1cccc(F)c1)Nc1cccc(Cl)c1 | inconclusive: 11.2 µM [activator, single point]
5 | Cc1nc(Nc2nc(CSc3nc4ccccc4[nH]3)cc(=O)[nH]2)nc2ccccc12 | inconclusive: 28.2 µM [inhibitor, single point]
6 | Cc1ccc(C(=O)NNC(=O)C2CCN(Cc3ccccc3)CC2)cc1 | inconclusive: 0.141 µM [activator, full curve, poor fit]
7 | CC(c1ccccc1)N1C(=O)/C(=C/c2ccncc2)SC1=S (configuration not stated) | inconclusive: 31.6 µM [inhibitor, single point]
8 | Cc1nc(NCCc2ccccc2)c2nnn(Cc3ccccc3)c2n1 | inactive
9 | CC(C)CC(=O)Nc1nc(=S)ss1 | inactive
10 | CC(=O)Nc1cccc(Oc2nc(-c3ccccn3)nc3ccccc23)c1 | active: 5.62 µM
11 | O=C1N/C(=C\c2nc3ccccc3s2)c2ccccc21 | inconclusive: 2.51 µM [inhibitor, full curve]
12 | Cc1cnc(=O)[nH]c1SCC(=O)c1ccc(F)cc1 | inactive
13 | COc1ccc(C(C#N)c2nc3ccccc3nc2Cl)cc1 (configuration not stated) | inconclusive: 3.98 µM [inhibitor, single point]
14 | O=C(Nc1ccccc1)N1CCCC2(CCN(C(=O)c3cnccn3)CC2)C1 | inactive
15 | O=C(Nc1ccccc1)C1=C[C@H](c2csc3ccccc23)C[C@H](OCc2ccc(CO)cc2)O1 | inconclusive: 10 µM [activator, partial curve]
16 | O=C(CSc1nnc(-c2cccnc2)n1Cc1ccco1)Nc1nc(-c2ccc(F)cc2)cs1 | inconclusive: 14.1 µM [activator, single point]
17 | O=C(NCc1ccc2c(c1)OCO2)C(=O)NCC(c1ccco1)N1CCN(c2ccccc2)CC1 (configuration not stated) | inconclusive: 17.8 µM [inhibitor, single point]
18 | Nc1nonc1-n1nnc(C(=O)N/N=C/c2ccco2)c1CSc1ccccc1 | inconclusive: 3.98 µM [inhibitor, full curve, poor fit]
19 | COc1ccc(-c2nn(CCC#N)cc2/C=N/O)cc1OC | inactive
20 | CCCN1CCN(C(=O)c2oc3c(Cl)cccc3c2C)CC1 | inactive
21 | Nc1nc(SCC(=O)N2CCCC2)[nH]c(=O)c1-c1ccccc1 | inactive
22 | COc1ccccc1OCCCC(=O)Nc1ccc2c(c1)OCCO2 | inconclusive: 3.16 µM [activator, partial curve, poor fit]
23 | O=C(Cc1cccs1)N/N=C\c1ccc([N+](=O)[O-])s1 | inconclusive: 14.1 µM [inhibitor, single point]
24 | CC1(CC(=O)N/N=C/c2ccc(-c3ccc(Cl)cc3)o2)OCCO1 | inconclusive: 14.1 µM [activator, single point]

Row | SMILES | Potency
25 | COc1ccc(CNC(=S)NC(C)CCc2ccccc2)cc1 (configuration not stated) | active: 3.16 µM
26 | Cc1ccc(Nc2nc(OC(C(F)(F)F)C(F)(F)F)nc(N3CCOCC3)n2)cc1 | inactive
27 | Cc1nn(C)c(C(=O)N/N=C/c2ccc(-c3ccccc3)cc2)c1Cl | active: 8.91 µM
28 | COc1ccc(S(=O)(=O)c2cnc3ccc(OC)cc3c2N2CCC3(CC2)OCCO3)cc1 | inactive
29 | CC(=O)COc1nc2c(c(-c3ccco3)c1C#N)CCc1ccccc1-2 | inactive
30 | CC(C)NC(=O)/C(C#N)=C\c1ccc(N(C)C)c(Br)c1 | inconclusive: 28.2 µM [inhibitor, single point]
31 | CCOC(=O)c1ccc(NC(=O)c2nc[nH]c2C(=O)N[C@@H](C)C(=O)OC(C)(C)C)cc1 | inconclusive: 35.5 µM [inhibitor, single point]
32 | COc1cccc(-n2c(N)c(C#N)c3ccc([N+](=O)[O-])cc3c2=O)c1 | inconclusive: 31.6 µM [activator, single point]
33 | O=C(COc1ccc2ccccc2c1)N[C@@H](C(=O)O)c1ccc(O)cc1 | inactive
34 | O=C(Nc1ccc([N+](=O)[O-])cc1)c1cc2ccccc2nc1Cl | inactive
35 | O=C(NCc1ccco1)c1ccc(C(F)(F)F)cc1 | inconclusive: 35.5 µM [activator, single point]
36 | O=C(N/N=C/CCc1ccccc1)c1ccc(CN2c3cccc4cccc(c34)S2(=O)=O)cc1 | active: 11.2 µM
37 | COc1ccccc1CNC(=O)c1ccc(NS(=O)(=O)c2cccs2)cc1 | inconclusive: 0.126 µM [inhibitor, full curve, poor fit]
38 | COC(=O)C1=C(C)N(Cc2ccccc2)C(=NCc2cccc(C(F)(F)F)c2)N[C@H]1c1cccc(F)c1 | inconclusive: 31.6 µM [inhibitor, single point] and inconclusive: 22.4 µM [inhibitor, single point]
39 | Cc1cc(-c2ccccc2)nc2cc(C(=O)N(Cc3ccccc3)Cc3ccccc3)nn12 | inconclusive: 20 µM [activator, partial curve, poor fit]
40 | CCOC(=O)c1sc(NC(=O)Nc2ccc(F)cc2)nc1C | inactive
41 | O=C(NC(=S)Nc1ccc(S(=O)(=O)NC2CCCCC2)cc1)c1cccs1 | active: 1.12 µM
42 | S=C(NCc1ccc2c(c1)OCO2)NC1CCN(Cc2ccccc2)CC1 | inconclusive: 35.5 µM [activator, single point]
43 | COc1ccc(CCNc2nc(-c3cccnc3)cs2)cc1OC | inconclusive: 35.5 µM [activator, single point]
44 | CSc1nc(-c2ccccc2)nc(C(Cl)Cl)n1 | active: 7.08 µM
45 | CC1CN(S(=O)(=O)c2csc(C(=O)Nc3ccccc3)c2)CC(C)O1 (configuration not stated) | inconclusive: 35.5 µM [activator, single point]
46 | Cc1cc(C)n2c(=O)c3ccc(Cl)cc3nc2c1C#N | inactive
47 | Nc1nc2c(s1)CCc1ccccc1-2 | inactive
48 | CC(C)CC(=O)Nc1cc2nn(-c3ccccc3)nc2cc1Cl | inactive

Row | SMILES | Potency
49 | Cn1c(-c2ccc(Br)o2)nc2cc(Br)ccc21 | inconclusive: 35.5 µM [inhibitor, single point]
50 | Cc1csc(NC(=O)c2ccc(C)c([N+](=O)[O-])c2)n1 | inconclusive: 14.1 µM [inhibitor, single point]
51 | CCc1ccc(NC(=S)NCC2CCCN2CC)cc1 (configuration not stated) | inconclusive: 22.4 µM [inhibitor, single point]
52 | Cc1ccc(O)c(NC(=O)c2cccc(NC(=O)c3ccco3)c2)c1 | inconclusive: 0.316 µM [activator, full curve, poor fit]
53 | COc1cccc(Cn2cccc(NC(=O)NC3CCCCC3)c2=O)c1 | inconclusive: 12.6 µM [activator, single point]
54 | CCc1nnc(NC(=O)CSc2nnc(-c3ccc(OC)cc3)n2C)s1 | inconclusive: 5.01 µM [activator, partial curve, poor fit]
55 | CCCC[C@@H]1C[C@H]1[C@@H](NC(=O)c1cccs1)c1ccc(Cl)cc1 | inconclusive: 35.5 µM [activator, single point]
56 | CCOC(=O)c1cc(NC(=O)Nc2ccccc2Cl)c(C)nc1C | inactive
57 | O=C(Nc1nnc(CCc2ccccc2)s1)c1cccc(F)c1 | active: 17.8 µM
58 | Cc1ccc(S(=O)(=O)N(C)C)cc1NC(=O)C(C)N(C)CCOc1ccc(Cl)cc1 (configuration not stated) | inconclusive: 17.8 µM [activator, single point]
59 | CC(=O)c1ccc(S(=O)(=O)NCc2ccc(C(=O)N(C)CC(=O)Nc3cccc(F)c3)cc2)cc1 | inconclusive: 11.2 µM [activator, partial curve]
60 | N#Cc1ccc(CN2CCC3(CC2)CCN(C(=O)c2ccncc2)CC3)cc1 | inactive
61 | O=C(CSc1nnc(-c2cccnc2)n1-c1ccc(SC(F)F)cc1)N1CCCc2ccccc21 | inconclusive: 20 µM [activator, partial curve]
62 | Cc1c(C(=O)Nc2ccc3c(c2)CCC3)cccc1[N+](=O)[O-] | inconclusive: 11.2 µM [activator, partial curve]
63 | CCc1noc(C)c1C(=O)NC1CCCc2c1cnn2-c1cc(C)cc(C)c1 (configuration not stated) | inactive
64 | Cn1nccc1C(=O)N1CCCC(C(=O)c2cccc3ccccc23)C1 (configuration not stated) | inconclusive: 35.5 µM [activator, single point]
65 | CCN(c1ccc(NS(=O)(=O)c2cc(Cl)ccc2Cl)cc1)C(C)C | inconclusive: 17.8 µM [activator, single point]
66 | CCn1c(CCc2ccccc2)nc2ccccc21 | inconclusive: 20 µM [inhibitor, partial curve, poor fit]
67 | CCOC(=O)c1c(C)[nH]c(C2=NNC(=Nc3cccc(Cl)c3)SC2)c1C | inconclusive: 35.5 µM [activator, single point]
68 | N#Cc1c2n(c(=S)n(-c3ccccc3[N+](=O)[O-])c1=O)CCCCC2 | inconclusive: 11.2 µM [inhibitor, single point]
69 | COC(=O)CSc1nc(-c2cccs2)ccc1C#N | inconclusive: 3.98 µM [activator, partial curve, poor fit]
70 | N#CCSc1nnc(COc2cccc3ccccc23)n1-c1ccccc1 | inconclusive: 35.5 µM [inhibitor, single point]
71 | CCN(CC)C(=S)Sc1c(-c2ccccc2)c2cc(Cl)ccc2[nH]c1=O | active: 8.91 µM
72 | CCn1c(CN2c3ccccc3Sc3ccccc32)n[nH]c1=S | active: 2.82 µM
